Experimental data reported in patent US20170107579A1, “E1 ENZYME MUTANTS AND USES THEREOF” (Millennium Pharmaceuticals, Inc., priority 2011, published 2017).

Protein sequences, listed by entry. Tags and fused reporters are not part of them. Lines headed by an entry give the natural chain unless they say otherwise; changes in a name come on top. Residues count along the entry.
UniProt Q8TBC4, whole entry A171T: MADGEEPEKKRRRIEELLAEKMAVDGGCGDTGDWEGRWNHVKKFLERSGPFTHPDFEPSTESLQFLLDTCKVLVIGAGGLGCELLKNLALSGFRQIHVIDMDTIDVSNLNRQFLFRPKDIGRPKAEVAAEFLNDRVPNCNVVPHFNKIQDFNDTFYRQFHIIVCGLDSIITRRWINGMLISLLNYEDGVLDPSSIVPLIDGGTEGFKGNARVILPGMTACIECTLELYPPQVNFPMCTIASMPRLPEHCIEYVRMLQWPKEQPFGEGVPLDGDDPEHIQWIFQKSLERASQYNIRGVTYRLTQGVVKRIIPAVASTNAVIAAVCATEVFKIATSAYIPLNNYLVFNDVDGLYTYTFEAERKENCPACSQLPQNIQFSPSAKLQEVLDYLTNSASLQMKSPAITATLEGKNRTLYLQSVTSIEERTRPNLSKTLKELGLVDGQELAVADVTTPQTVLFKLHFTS
UniProt Q8TBC4, whole entry: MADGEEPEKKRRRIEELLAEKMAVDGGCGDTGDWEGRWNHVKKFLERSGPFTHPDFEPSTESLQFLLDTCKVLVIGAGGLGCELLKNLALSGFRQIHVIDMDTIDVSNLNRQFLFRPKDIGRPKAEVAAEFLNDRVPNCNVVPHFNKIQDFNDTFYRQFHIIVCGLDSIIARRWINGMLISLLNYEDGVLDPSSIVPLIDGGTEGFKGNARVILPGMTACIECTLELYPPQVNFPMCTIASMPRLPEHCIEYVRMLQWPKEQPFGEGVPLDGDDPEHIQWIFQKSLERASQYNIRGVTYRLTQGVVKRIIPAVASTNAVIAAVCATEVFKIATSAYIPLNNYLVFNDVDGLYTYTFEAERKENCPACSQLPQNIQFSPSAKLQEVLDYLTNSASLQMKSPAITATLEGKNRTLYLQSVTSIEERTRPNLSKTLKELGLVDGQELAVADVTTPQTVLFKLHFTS
UniProt Q13564, whole entry partner: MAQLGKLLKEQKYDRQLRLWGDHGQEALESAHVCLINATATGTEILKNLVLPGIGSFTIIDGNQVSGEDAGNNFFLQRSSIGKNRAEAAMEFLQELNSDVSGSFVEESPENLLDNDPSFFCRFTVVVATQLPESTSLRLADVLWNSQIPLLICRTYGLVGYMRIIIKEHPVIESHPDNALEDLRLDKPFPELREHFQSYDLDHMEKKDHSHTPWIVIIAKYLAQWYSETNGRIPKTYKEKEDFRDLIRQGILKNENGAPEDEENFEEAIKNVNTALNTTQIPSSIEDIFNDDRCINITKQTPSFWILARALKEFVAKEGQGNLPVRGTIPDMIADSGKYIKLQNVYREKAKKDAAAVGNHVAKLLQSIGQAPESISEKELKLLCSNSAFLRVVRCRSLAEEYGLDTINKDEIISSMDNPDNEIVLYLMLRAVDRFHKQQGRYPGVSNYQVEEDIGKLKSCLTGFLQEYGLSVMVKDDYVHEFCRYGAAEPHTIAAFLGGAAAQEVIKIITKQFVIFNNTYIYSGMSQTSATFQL
UniProt Q15843, 1-76 partner limits assumed: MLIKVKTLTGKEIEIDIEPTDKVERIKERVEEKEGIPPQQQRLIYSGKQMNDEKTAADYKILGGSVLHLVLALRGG

Tests used:
[1] = biological target: UBA3 variant with A171T mutation (NAE) (Homo sapiens, UniProt Q8TBC4, A171T); experiment: NAE HTRF assay, IC50 at KM for ATP (120 μM); settings: for IC50: read-out: NAE Mutant A171T IC50, UBA3 A171T mutant, HTRF assay at KM for ATP, 120 μM; for A171T/WT: ratio of IC50 A171T mutant to IC50 wild type
wild type UBA3 (NAE) = wild type UBA3 (NAE) (Homo sapiens, UniProt Q8TBC4); experiment: NAE HTRF assay, IC50 at KM for ATP (20 μM); settings: read-out: NAE WT IC50

NS(=O)(=O)OC[C@H]1O[C@@H](n2cnc3c(NCc4ccc(F)cc4)ncnc32)[C@H](O)[C@@H]1O
IC50 ([1]; PCT publication WO 2006/): 160 nM | IC50 ([1]; PCT publication WO 2007/): 55 nM

NS(=O)(=O)OC[C@H]1O[C@@H](n2cnc3c(N[C@H]4CCc5ccccc54)ncnc32)[C@H](O)[C@@H]1O
A171T/WT [1]: 22 and 44 | IC50 ([1]; PCT publication WO 2006/): 12 nM | IC50 ([1]; PCT publication WO 2007/): 200 nM | IC50 ([1]; PCT publication WO 2008/): 280 nM

COC1Cc2ccccc2C1Nc1cc(NC2CC(O)C(COS(N)(=O)=O)C2)ncn1 (stereo not shown)
IC50 (wild type UBA3 (NAE)): 2.5 nM and 2.2 nM | A171T/WT ([1]; PCT publication WO 2006/): 18 | A171T/WT ([1]; PCT publication WO 2008/): 56

NS(=O)(=O)OC[C@H]1O[C@@H](n2cnc3c(C#Cc4ccccc4)ncnc32)[C@H](O)[C@@H]1O
A171T/WT ([1]; PCT publication WO 2006/, phenylethynyl purin-9-yl compound): 56 | A171T/WT ([1]; PCT publication WO 2008/, inden-1-ylamino pyrimidin-4-yl compound): 1204 | IC50 ([1]; PCT publication WO 2006/, Example number I-5): 18 nM | IC50 ([1]; PCT publication WO 2008/, Example number I-5): 5900 nM

NS(=O)(=O)OC[C@H]1O[C@@H](n2cnc3c(N[C@@H]4c5ccccc5C[C@@H]4O)ncnc32)[C@H](O)[C@@H]1O
A171T/WT [1]: 3

CC1(C)C[C@H](Nc2ncnc3c2ccn3[C@@H]2C[C@@H](COS(N)(=O)=O)[C@@H](O)C2)c2ccc(Cl)cc21
IC50 [1]: 230 nM and 440 nM

NS(=O)(=O)OC[C@H]1O[C@@H](n2cnc3c(NCc4ccc5c(c4)OCO5)ncnc32)[C@H](O)[C@@H]1O
A171T/WT ([1]; PCT publication WO 2006/): 87 | A171T/WT ([1]; PCT publication WO 2007/): 25 | IC50 [1]: 260 nM and 200 nM

NS(=O)(=O)OC[C@H]1O[C@@H](n2cnc3c(N[C@@H](CO)c4ccccc4)ncnc32)[C@H](O)[C@@H]1O
IC50 (wild type UBA3 (NAE)): 11 nM and 12 nM

CC(=O)Nc1ncnc2c1ccn2C1CC(O)C(COS(N)(=O)=O)C1 (stereo not shown)
A171T/WT ([1]; PCT publication WO 2007/): 3 | A171T/WT ([1]; PCT publication WO 2008/): 30 | IC50 [1]: 340 nM and 210 nM

Values joined by “and” are separate entries in the source; they are usually repeats but may differ in a detail not shown here. Equal entries are not always repeated. Where two headings read alike, the source gives them in different places. The structures given here were assigned with low confidence; some may be wrong.
